Measurements taken from publication PMC6681339.
These are yes or no findings as the source states them, for the method shown. In cells and extracts the contact can be indirect. Some results given as binding are weak or reduced against the parent protein; the word gives no strength. Where a sequence is shown, tags or fusion partners need not be part of it.

By UniProt entry, the sequences of proteins in these tests, tags left out. Residues count along the entry.
UniProt Q15843, residues 1-76: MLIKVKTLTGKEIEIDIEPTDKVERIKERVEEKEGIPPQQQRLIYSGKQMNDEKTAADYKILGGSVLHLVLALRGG

Target: GST-NEDD8 (UniProt Q15843)
Assay: pull-down; GST-ubiquitin, GST-NEDD8 or GST alone on beads incubated with lysates of HEK293 cells expressing GFP fusions (20 h post-transfection); blot with anti-GFP; only the target purified

binding: binds weakly
B1: GFP-N4BP1 (amino acid fragment spanning residues 813–896 of N4BP1) (domain or fragment, UniProt O75113 813-896)
chain: TRIQGAPSSHWLPQQPHFPLLPALPSLQQNLPMPAQRSSAETNELREALLKIFPDSEQRLKIDQILVAHPYMKDLNALSAMVLD
